Measurements reported in PubChem BioAssay AID2685 (National Center for Advancing Translational Sciences (NCATS), 2010).
The list shows a part of the results. These are further read-outs of the screen, such as a control signal, another cell line or another target. No call is given for them. Compounds called inactive in the main read-out are mostly missing here. Potencies come from curve fits of mixed quality, noted in brackets.

Experiment: qHTS Assay for Lipid Storage Modulators in Drosophila S3 Cells;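 for cell number change: cells counted by Cell Tracker Red CMTPX staining in the red channel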
Conditions: BODIPY lipid droplet fluorescence, 18-24 h; for cell number change: measured here: cell count max response, cells fed with added oleic acid
Method in brief: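 Laser-scanning cytometry quantifies lipid droplet accumulation (500–530 nm total intensity; droplet/cell object ratio) in oleic acid-fed (400 uM added) Drosophila S3 cells treated with a concentration series. 20 uM Triacsin C defined 100% inhibition.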

[1] = measured here: lipid fluorescence (Fed channel) AC50, cells fed with added oleic acid
[2] = measured here: cell number channel AC50, cells fed with added oleic acid

SMILES	cell number change	AC50 [1]	AC50 [2]
O=C(CN1CCN(c2ccc(F)cc2)CC1)NC(=O)NCc1ccco1	0.729%		
CCn1c2ccccc2c2cnc(N=CN(C)C)c(C#N)c21	-1.04%	0.116 µM [rising, partial curve]	
COc1cc2c3nnc(-c4ccc(F)cc4)c-3cn(Cc3cccc(C)c3)c2cc1OC	8.69%	11.6 µM [falling, partial curve]	
Cc1nccn1-c1ccc(C(F)(F)F)cc1NC=O	8.51%		
O=C(CNC(=O)c1cccs1)c1ccc([N+](=O)[O-])cc1	-2.53%	0.00411 µM [falling, full curve, poor fit]	
COC(=O)c1[nH]c2ccccc2c1NC(=O)CN1CCCc2ccccc21	-62.7%	32.6 µM [falling, partial curve, poor fit]	23.1 µM [falling, single point]
Cn1nc(C(=O)OCC(=O)Nc2cc(Cl)ccc2C#N)c2ccccc2c1=O	-49%	18.4 µM [falling, single point]	29.1 µM [falling, single point]
Cc1ccc(-c2cc(C(=O)N/N=C/C=C/c3ccccc3)n[nH]2)o1	-8.32%	3.66 µM [falling, single point]	
Cc1ccc(S(=O)(=O)N/N=C\c2cn(CC(N)=O)c3ccccc23)cc1	17.8%	29.1 µM [rising, single point]	
C/C(=N\OC(=O)c1ccc(C)cc1)c1sc(C)nc1C	31.4%		20.6 µM [rising, single point]
COC(=O)CCN(C(=O)c1ccc(N2CCCC2)c([N+](=O)[O-])c1)c1ccccn1			0.731 µM [falling, single point]
COC(=O)c1ccc(CNC(=O)COC(=O)c2ccc(N(C)C)cc2)cc1	-90.5%		29.1 µM [falling, single point]
Nc1nonc1-n1nnc(C(=O)N/N=C/c2cccc(O)c2)c1CN1CCCC1	-18.7%	0.13 µM [falling, full curve, poor fit]	
CCN1C(=O)c2ccc(C(=O)Nc3ccc(O)cc3C)cc2C1=O	-20.7%	29.1 µM [falling, single point]	
Cc1cccc(C(=O)OCC(=O)NCC(C)C)c1O	94.5%	11.6 µM [rising, partial curve]	7.31 µM [rising, partial curve]
CC(=O)c1cnc(SCCN2C(=O)c3ccccc3C2=O)nc1C	15.1%		
Cc1cccc(NC(=O)c2nc[nH]c2C(=O)NCc2ccccc2)c1	-54.9%		4.11 µM [falling, single point]
COC(=O)C1=C(C)NC(C)=C(C(=O)OC)C1c1ccc2ccccc2n1	41.9%	0.651 µM [rising, single point]	18.4 µM [rising, single point]
C=CCN(CC=C)S(=O)(=O)c1ccc(C(=O)Nc2nnc(COC)o2)cc1	-67.7%	20.6 µM [falling, single point]	1.3 µM [falling, partial curve]
Cc1nn(-c2ccccc2)c(N)c1C(c1ccc(C(C)C)cc1)c1c(C)nn(-c2ccccc2)c1N	90.7%	25.9 µM [rising, single point]	29.1 µM [rising, single point]

2 of the compounds above, field by field:
Cn1nc(C(=O)OCC(=O)Nc2cc(Cl)ccc2C#N)c2ccccc2c1=O
  cell number change: -49%; AC50 [1]: 18.4 µM [falling, single point]; AC50 [2]: 29.1 µM [falling, single point]
Cc1ccc(-c2cc(C(=O)N/N=C/C=C/c3ccccc3)n[nH]2)o1
  cell number change: -8.32%; AC50 [1]: 3.66 µM [falling, single point]

Next entries:

SMILES	cell number change	AC50 [1]	AC50 [2]
S=c1[nH]cc(-c2ccccc2)n1-c1cccc(Cl)c1	-37.8%	32.6 µM [rising, partial curve, poor fit]	9.2 µM [falling, partial curve, poor fit]
N#Cc1ccc2[nH]cc(CCO)c2c1	-8.68%	29.1 µM [falling, single point]	
Cc1nnc(SCC(=O)Nc2ccc3c(c2)OCCO3)n1N	-29.6%	18.4 µM [falling, partial curve]	4.11 µM [falling, full curve, poor fit]
S=c1[nH]nc(-c2ccc3ccccc3n2)o1	83.1%	0.116 µM [rising, full curve, poor fit]	23.1 µM [rising, partial curve]
O=C(Cc1ccccc1)N1CCN(C(=O)c2cccs2)CC1	1.08%		
CC(=O)c1cccc(NC(=O)Cn2cc3c(n2)CCCC3)c1	25%	16.4 µM [rising, single point]	
CCCc1nc(Nc2nc3ccccc3o2)nc(C)c1C(=O)OCC	-18.4%		
CC1=C(C)CC(C(=O)NCCc2ccccc2)C(C(=O)O)C1 (stereo not drawn)		5.8 µM [falling, partial curve]	
COC(=O)COC(=O)c1ccc(O)cc1	-4.45%		
O=C(CSc1nnnn1-c1ccccc1)Nc1ncc2c(n1)CC(c1ccco1)CC2=O (stereo not drawn)	-35.9%	0.082 µM [rising, full curve, poor fit]	7.31 µM [falling, partial curve]
O=C(COC(=O)C1CCC1)Nc1cccc(Cl)c1	-30.5%		1.3 µM [falling, full curve, poor fit]
Cc1ccc(-n2ncc3c(=O)n(CC(=O)N(C)C)cnc32)cc1	19.9%	0.0731 µM [rising, full curve, poor fit]	
Nc1nnc(SCC(=O)NC23CC4CC(CC(C4)C2)C3)s1	5.88%		
NC(=O)NC(Cc1ccccc1)C(=O)NCCCSc1ccccc1 (stereo not drawn)		14.6 µM [rising, partial curve]	
CC1Cc2cc(/C(O)=C3\C(=O)C(=O)N(CCN(C)C)C3c3ccccc3F)ccc2O1 (stereo not drawn)	-46.5%	29.1 µM [falling, single point]	2.59 µM [falling, full curve]
COc1nccnc1NS(=O)(=O)c1ccc(NS(=O)(=O)c2ccc(NC(C)=O)cc2)cc1	-47.9%	23.1 µM [rising, single point]	20.6 µM [falling, single point]
CCn1c(-c2ccc(Cl)cc2)n[nH]c1=S	53.3%	25.9 µM [rising, single point]	13 µM [rising, partial curve]
O=c1cc(O)nc(SCc2ccccc2)n1-c1ccc(F)cc1	-6.96%	0.116 µM [falling, full curve, poor fit]	
Cc1cccc(NS(=O)(=O)c2cc3c(cc2C)N(C)CCO3)c1	10.4%		
CNC(=O)c1ccc2nc(NC(C)=O)sc2c1	-59.8%		23.1 µM [falling, partial curve]

SMILES	cell number change	AC50 [1]	AC50 [2]
O=C(C1CCCO1)N1CCN(C(=S)Nc2ccc(Cl)cc2Cl)CC1 (stereo not drawn)	13.6%	2.31 µM [rising, partial curve, poor fit]	0.146 µM [falling, full curve, poor fit]
Cc1cc(O)c(/C=N/OCc2ccc(Cl)cc2Cl)c(=O)o1	30.2%		
CCC/C(O)=C1\C(=O)CCCC1=NCCc1c(C)[nH]c2ccc(C)cc12	11%	0.13 µM [rising, full curve, poor fit]	
Nc1ccc(S(=O)(=O)Nc2ccc(S(N)(=O)=O)cc2)cc1	-5.68%	0.13 µM [falling, full curve, poor fit]	
CCCCCCc1cc2cc(C(=O)OCC)c(=O)oc2cc1O	-16.9%	0.13 µM [falling, full curve, poor fit]	
Cc1c(C(=O)NCCSc2ccc(Cl)cc2)cccc1[N+](=O)[O-]	-20.3%	16.4 µM [rising, single point]	
O=C(NC(=S)Nc1ccccc1C(F)(F)F)c1ccccc1F	-46.1%		
O=C(NCCC1=CCCCC1)C(=O)NCC(c1ccco1)N1CCN(c2ccccc2F)CC1 (stereo not drawn)	-12.2%	4.11 µM [rising, partial curve, poor fit]	
CN(C)c1ccc(C(=O)NCC(c2cccs2)N2CCOCC2)cc1[N+](=O)[O-] (stereo not drawn)		3.26 µM [rising, single point]	
CC(=O)Oc1c(S(=O)(=O)c2ccccc2)c(C)nn1C(C)(C)C	-49.2%	16.4 µM [falling, partial curve]	16.4 µM [falling, partial curve]
COC(=O)[C@H](CC(C)C)NS(=O)(=O)N(Cc1ccccc1)[C@@H](CC(C)C)C(=O)OC	-9.27%	1.84 µM [falling, partial curve]	1.64 µM [falling, partial curve]
O=C1c2cccnc2C(=O)N1Cc1ccc(Cl)cc1	-14.6%	0.13 µM [falling, full curve, poor fit]	
CCOC(=O)C1(CCOc2ccccc2)CCN(Cc2ccc3c(c2)OCCO3)CC1	-27.9%	29.1 µM [falling, single point]	
O=C(O)c1cccc(NC(=O)c2cc(-c3cccc(Cl)c3)nc3ccccc23)c1	1.85%	6.51 µM [falling, single point]	3.26 µM [falling, single point]
COC(=O)c1c(C)nc2c(c(SC)nn2-c2ccccc2)c1N	-27.6%		
CC(=O)N1CCC(C(=O)Nc2ccc3c(c2)CCC3)CC1		0.651 µM [rising, single point]	
CCCOc1ccc([C@@H]2C3CN(C(=O)OCC)CC=C3C(C#N)=C(N)C2(C#N)C#N)cc1OC (stereo partly drawn)	69.5%	0.92 µM [rising, partial curve]	1.03 µM [rising, full curve]
Cc1cc(S(=O)(=O)N2CCCOC2CNC(=O)C(=O)NCCCN2CCOCC2)ccc1F (stereo not drawn)	13.5%	1.64 µM [rising, partial curve]	
